Source: PMC4364341, “NBD delivery improves the disease phenotype of the golden retriever model of Duchenne muscular dystrophy” (Skeletal Muscle, 2014)

Columns and labels:
Type in all cases: in vivo, dog
wild type dogs = experiment: Eccentric contraction decrement (ECD), wild type dogs; settings: n = 3; for ECD (1-10): after 10 contractions; for ECD (1-30): after 30 contractions
Body mass, GRMD dogs = settings: n = 6
[1] = Body mass, wild type dogs; settings: n = 3
[2] = NBD group, age 2 months (start of treatment)
[3] = age 6 months, NBD 10 mg/kg IV 3x weekly for 4 months

In the case of “TALDWSWLQTE [NBD, NBD peptide (…) fused to an Antennapedia protein transduction domain]”, the “ECD (1-10)” value (wild type dogs; [2]) is reported as 13.36 ± 2.65%, the “ECD (1-10)” value (wild type dogs; [3]) is reported as 14.47 ± 7.31% and the “ECD (1-30)” value (wild type dogs; [2]) is reported as 33.44 ± 10.3%. For the same sequence, the “ECD (1-30)” value (wild type dogs; [3]) was 23.25 ± 17.4%, the “Body Mass” value (Body mass, GRMD dogs; [2]) was 3.60 ± 0.27 kg and the “Body Mass” value (Body mass, GRMD dogs; [3]) was 12.70 ± 2.81^1 kg. For the same sequence, the “Body Mass” value [1, 2] was 4.99 ± 1.83 kg and the “Body Mass” value [1, 3] was 21.10 ± 3.15^1 kg.
